The name of at least one read-out is uncertain.
How the values were obtained:
Type in all cases: in vivo
[1] = test system: edible barnyardgrass (Ec); assay: Test Example 2: herbicidal effect test by upland field soil treatment; settings: wettable powder, 100 g/10 a active ingredient, evaluated 21st day after treatment
slender amaranth (Am) [2] = assay: Test Example 3: herbicidal effect test by upland field foliage treatment; settings: upland field foliage treatment of plants cultured 2 weeks, wettable powder, 100 g/10 a active ingredient, evaluated 14th day after treatment
monochoria (Mo) = assay: Test Example 1: herbicidal effect test by paddy field soil treatment; settings: flooded 3 cm, wettable powder, 100 g/10 a active ingredient, evaluated 21st day after treatment
pale smartweed (Po) [3] = assay: Test Example 3: herbicidal effect test by upland field foliage treatment; settings: upland field foliage treatment of plants cultured 2 weeks, wettable powder, 100 g/10 a active ingredient, evaluated 14th day after treatment
pale smartweed (Po) [4] = assay: Test Example 2: herbicidal effect test by upland field soil treatment; settings: wettable powder, 100 g/10 a active ingredient, evaluated 21st day after treatment
lambsquarters (Ch) [5] = assay: as above; settings: wettable powder, 100 g/10 a active ingredient, evaluated 21st day after treatment
lambsquarters (Ch) [6] = assay: Test Example 3: herbicidal effect test by upland field foliage treatment; settings: upland field foliage treatment of plants cultured 2 weeks, wettable powder, 100 g/10 a active ingredient, evaluated 14th day after treatment
rice flatsedge (Ci) [7] = assay: Test Example 2: herbicidal effect test by upland field soil treatment; settings: wettable powder, 100 g/10 a active ingredient, evaluated 21st day after treatment
barnyardgrass (Ec) = assay: Test Example 1: herbicidal effect test by paddy field soil treatment; settings: flooded 3 cm, wettable powder, 100 g/10 a active ingredient, evaluated 21st day after treatment
slender amaranth (Am) [8] = assay: Test Example 2: herbicidal effect test by upland field soil treatment; settings: wettable powder, 100 g/10 a active ingredient, evaluated 21st day after treatment
bulrush (Sc) = assay: Test Example 1: herbicidal effect test by paddy field soil treatment; settings: flooded 3 cm, wettable powder, 100 g/10 a active ingredient, evaluated 21st day after treatment
[9] = test system: edible barnyardgrass (Ec); assay: Test Example 3: herbicidal effect test by upland field foliage treatment; settings: upland field foliage treatment of plants cultured 2 weeks, wettable powder, 100 g/10 a active ingredient, evaluated 14th day after treatment
rice flatsedge (Ci) [10] = assay: as above; settings: upland field foliage treatment of plants cultured 2 weeks, wettable powder, 100 g/10 a active ingredient, evaluated 14th day after treatment

Structure (SMILES)	Herbicidal effect Ec [1]	Herbicidal effect Am (slender amaranth (Am) [2])	Herbicidal effect Mo (monochoria (Mo))	Herbicidal effect Po (pale smartweed (Po) [3])	Herbicidal effect Po (pale smartweed (Po) [4])	Herbicidal effect Ch (lambsquarters (Ch) [5])	Herbicidal effect Ch (lambsquarters (Ch) [6])	Herbicidal effect Ci (rice flatsedge (Ci) [7])	Herbicidal effect Ec (barnyardgrass (Ec))	Herbicidal effect Am (slender amaranth (Am) [8])	Herbicidal effect Sc (bulrush (Sc))	Herbicidal effect Ec [9]	Herbicidal effect Ci (rice flatsedge (Ci) [10])
C#Cc1cccc(Oc2nc(OC)cc(OC)n2)c1C(=O)OCC[Si](C)(C)C [Compound No. 38]	4 (at least 70% and less than 90%)	5 (at least 90% control)	5 (at least 90% control)	5 (at least 90% control)	5 (at least 90% control)	5 (at least 90% control)	5 (at least 90% control)	5 (at least 90% control)	5 (at least 90% control)	5 (at least 90% control)	5 (at least 90% control)	5 (at least 90% control)	5 (at least 90% control)
COc1cc(OC)nc(Oc2cccc(C#C[Si](C)(C)C)c2C(=O)OCC[Si](C)(C)C)n1 [compound 37]	3 (at least 50% and less than 70%)	5 (at least 90% control)	5 (at least 90% control)	5 (at least 90% control)	5 (at least 90% control)	5 (at least 90% control)	5 (at least 90% control)	5 (at least 90% control)	5 (at least 90% control)	5 (at least 90% control)	5 (at least 90% control)	4 (at least 70% and less than 90%)	5 (at least 90% control)
